Measurements reported in PubChem BioAssay AID652243 (Drosophila RNAi Screening Center, 2013).
Purpose: 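Fly genes required for human androgen receptor driven transcription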 (primary screen). Cell system: Drosophila S2R+ cells. Reagents: long dsRNA against Drosophila genes. Time to read-out: 72 h (48 h, then 24 h hormone). Treatment: synthetic androgen R1881 at 10 nM for 24 h. Read-out: 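Firefly light from an androgen-responsive reporter and Renilla control light per well, raw and unnormalised, for each of two replicates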. Scale: firefly reporter light: higher = more light from androgen-responsive reporter; Renilla control light: higher = more constitutive control signal (cell number, transfection). Call rule: 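Across duplicate plates, a knock-down whose log firefly/Renilla ratio shifted a set fold down or up from the GFP/LacZ control mean was a hit; the downward cut appears as both 1.5 and 3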. Calls: active = hit: reporter lowered or raised; inactive = no hit.
In all, the deposit lists about 24,000 reagents; below is an unselected part of those with a known target gene and a result. Over the whole deposit, 246 (1%) got an active call. 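Plates not normalised; calls are printed but the firefly/Renilla ratio behind them is not deposited; fold cut for lowering reported inconsistently.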 The raw values are shown without normalisation. Names joined by + are all predicted targets of the reagent. Reagent sequences are not shown. Not stated in the record: the amount of reagent.

| target gene | dsRNA | firefly reporter light, replicate 1 | firefly reporter light, replicate 2 | Renilla control light, replicate 1 | Renilla control light, replicate 2 | outcome |
| --- | --- | --- | --- | --- | --- | --- |
| shv | DRSC00640 | 28352 | 29359 | 3.69e5 | 2.70e5 | inactive |
| shv | DRSC22122 | 5.65e5 | 7.45e5 | 2.79e6 | 2.36e6 | inactive |
| shv | DRSC26482 | 37270 | 94590 | 90071 | 1.45e5 | inactive |
| shv | DRSC26483 | 1.54e5 | 1.74e5 | 2.94e5 | 2.17e5 | inactive |
| Vha100-5 | DRSC02175 | 1.43e5 | 1.90e5 | 1.16e6 | 1.53e6 | inactive |
| Vha100-5 | DRSC26439 | 5.37e5 | 4.27e5 | 4.87e5 | 3.20e5 | inactive |
| rdhB | DRSC16190 | 94410 | 1.33e5 | 6.83e5 | 6.64e5 | inactive |
| CG4597 | DRSC10432 | 78707 | 1.17e5 | 7.47e5 | 2.12e6 | inactive |
| tinc | DRSC14798 | 84289 | 94313 | 9.86e5 | 1.28e6 | inactive |
| tinc | DRSC14799 | 54057 | 72366 | 7.35e5 | 9.81e5 | inactive |
| tinc | DRSC16308 | 35504 | 47567 | 6.91e5 | 1.25e6 | inactive |
| tinc | DRSC16309 | 1.57e5 | 1.74e5 | 2.65e6 | 2.27e6 | inactive |
| Ets98B | DRSC16666 | 5.92e5 | 6.33e5 | 1.85e6 | 1.94e6 | inactive |
| Ets98B | DRSC24625 | 4.54e5 | 3.09e5 | 5.64e5 | 4.52e5 | inactive |
| GstE14 | DRSC06881 | 3.97e5 | 2.88e5 | 1.43e6 | 2.08e6 | inactive |
| GstE14 | DRSC26779 | 2.92e5 | 2.24e5 | 5.08e5 | 2.95e5 | inactive |
| CCKLR-17D1 | DRSC20011 | 4.25e5 | 3.54e5 | 1.72e6 | 9.01e5 | inactive |
| CCKLR-17D1 | DRSC20012 | 1.35e5 | 59587 | 5.84e5 | 2.44e5 | inactive |
| CCKLR-17D1 | DRSC28081 | 4.94e5 | 3.34e5 | 1.78e6 | 1.49e6 | inactive |
| CG2076 | DRSC19832 | 4.16e5 | 4.15e5 | 2.75e6 | 2.98e6 | inactive |
| CG2076 | DRSC27047 | 4.45e5 | 3.21e5 | 7.78e5 | 5.94e5 | inactive |
| CG33689 | DRSC38838 | 9.64e5 | 7.82e5 | 2.03e6 | 1.57e6 | inactive |
| Galk | DRSC10500 | 7.20e5 | 1.10e6 | 1.29e6 | 1.05e6 | inactive |
| Galk | DRSC26987 | 3.99e5 | 3.27e5 | 8.51e5 | 7.52e5 | inactive |
| Galk | DRSC39310 | – | – | – | – | inactive |
| CG14154 | DRSC10156 | 2.02e5 | 1.75e5 | 2.30e6 | 2.09e6 | inactive |
| BI-1 | DRSC10782 | 1.01e6 | 9.62e5 | 1.02e6 | 1.03e6 | inactive |
| rept | DRSC11388 | 2.54e5 | 2.22e5 | 1.82e6 | 1.65e6 | inactive |
| rept | DRSC27183 | 4.43e5 | 3.39e5 | 5.20e5 | 4.18e5 | inactive |
| hzg | DRSC23382 | 9.74e5 | 1.18e6 | 9.24e5 | 9.67e5 | inactive |
| hzg | DRSC39054 | 7.62e5 | 6.23e5 | 1.71e6 | 1.49e6 | inactive |
| CG8750 | DRSC11037 | 2.87e5 | 2.82e5 | 2.15e6 | 1.94e6 | inactive |
| CG14125 | DRSC10129 | 1.65e5 | 1.39e5 | 1.98e6 | 1.65e6 | inactive |
| Archease | DRSC16025 | 3.33e5 | 3.24e5 | 3.20e6 | 3.45e6 | inactive |
| IPIP | DRSC02164 | 6.23e5 | 7.66e5 | 2.30e6 | 2.44e6 | inactive |
| IPIP | DRSC27480 | 3.53e5 | 3.47e5 | 6.73e5 | 2.76e5 | inactive |
| CG42455 + vnc | DRSC09867 | 9.01e5 | 8.11e5 | 1.67e6 | 1.90e6 | inactive |
| Blm | DRSC16911 | 1.20e5 | 42053 | 6.52e5 | 2.67e5 | inactive |
| Or67a | DRSC11240 | 1.99e5 | 1.52e5 | 2.83e6 | 1.93e6 | inactive |
| CG4949 | DRSC19926 | 1.36e5 | 1.35e5 | 6.51e5 | 6.67e5 | inactive |
| Sdhaf3 | DRSC15020 | 2.38e5 | 1.97e5 | 2.21e6 | 2.51e6 | inactive |
| Elal | DRSC16662 | 1.44e5 | 1.21e5 | 7.16e5 | 6.08e5 | inactive |
| Arl6IP1 | DRSC14231 | 1.17e5 | 1.08e5 | 1.87e6 | 2.26e6 | inactive |
| CG33137 | DRSC22131 | 1.30e6 | 1.19e6 | 2.43e6 | 2.22e6 | inactive |
| mthl3 | DRSC06997 | 8.45e5 | 5.16e5 | 1.22e6 | 8.12e5 | inactive |
| mthl3 | DRSC24927 | 5.91e5 | 4.04e5 | 6.49e5 | 7.15e5 | inactive |
| CG31437 | DRSC13711 | 74725 | 95151 | 83387 | 1.51e5 | inactive |
| Ndg | DRSC06223 | 1.23e6 | 1.30e6 | 1.77e6 | 1.90e6 | inactive |
| Ndg | DRSC28402 | 5.95e5 | 7.43e5 | 8.14e5 | 7.16e5 | inactive |
| rst | DRSC17243 | 3.78e5 | 3.88e5 | 3.87e5 | 3.47e5 | inactive |
| rst | DRSC18828 | 2.45e5 | 2.35e5 | 3.18e6 | 3.05e6 | inactive |
| rst | DRSC25716 | 3.52e5 | 2.02e5 | 1.20e6 | 5.14e5 | inactive |
| Sirt6 | DRSC16010 | 1.66e5 | 1.62e5 | 2.63e6 | 3.12e6 | inactive |
| Sirt6 | DRSC29965 | 5.72e5 | 6.83e5 | 1.56e6 | 1.91e6 | inactive |
| Idgf5 | DRSC06919 | 4.20e5 | 4.22e5 | 9.04e5 | 7.16e5 | inactive |
| Idgf5 | DRSC26392 | 3.12e5 | 3.04e5 | 5.87e5 | 5.78e5 | inactive |
| CG17782 | DRSC23227 | 6.92e5 | 7.90e5 | 1.80e6 | 1.61e6 | inactive |
| lola | DRSC05220 | 55281 | 80629 | 1.72e5 | 24313 | inactive |
| lola | DRSC05221 | 3.49e5 | 3.05e5 | 3.25e5 | 20970 | inactive |
| lola | DRSC05222 | 1.08e5 | 1.52e5 | 1.66e5 | 1.53e5 | inactive |
| lola | DRSC05223 | 42034 | 23650 | 1.21e5 | 1.60e5 | inactive |
| lola | DRSC05224 | 1.16e5 | 1.20e5 | 4.79e5 | 2.39e5 | inactive |
| lola | DRSC06738 | 4.23e5 | 3.51e5 | 5.34e5 | 6.13e5 | inactive |
| lola | DRSC06740 | 9.97e5 | 1.19e6 | 1.06e6 | 1.20e6 | inactive |
| lola | DRSC06741 | 3.30e5 | 1.43e5 | 1.37e6 | 1.08e6 | inactive |
| lola | DRSC07646 | 1.02e6 | 9.93e5 | 1.15e6 | 1.01e6 | inactive |
| lola | DRSC07647 | 5.41e5 | 3.59e5 | 1.85e6 | 1.73e6 | inactive |
| lola | DRSC27862 | 6.04e5 | 4.59e5 | 1.95e6 | 1.24e6 | inactive |

5 entries from above, ordered by “firefly reporter light, replicate 1”, ascending.
| target gene | dsRNA | firefly reporter light, replicate 1 | firefly reporter light, replicate 2 | Renilla control light, replicate 1 | Renilla control light, replicate 2 | outcome |
| --- | --- | --- | --- | --- | --- | --- |
| lola | DRSC05220 | 55281 | 80629 | 1.72e5 | 24313 | inactive |
| Idgf5 | DRSC26392 | 3.12e5 | 3.04e5 | 5.87e5 | 5.78e5 | inactive |
| lola | DRSC05221 | 3.49e5 | 3.05e5 | 3.25e5 | 20970 | inactive |
| Idgf5 | DRSC06919 | 4.20e5 | 4.22e5 | 9.04e5 | 7.16e5 | inactive |
| CG17782 | DRSC23227 | 6.92e5 | 7.90e5 | 1.80e6 | 1.61e6 | inactive |
